Here are results for one molecule from paper PMC10876309, “Two Main Cancer Biomarkers as Molecular Targets of Binase Antitumor Activity” (BioMed Research International, 2024).

These are yes or no findings as the source states them, for the method shown. In cells and extracts the contact can be indirect. Some results given as binding are weak or reduced against the parent protein; the word gives no strength.

The target in the experiment is epidermal growth factor receptor (EGFR) (human (endogenous in BT-20)) (UniProt P00533). As to the kind of experiment: co-IP; 20 μg purified binase incubated with 1000 μg cell protein lysate for 15 min at 37°C; anti-EGFR (sc-120, BT-20 lysate) or anti-pan Ras (sc-166691, ROSE 199 A2/5 lysate) or control IgG overnight at 4°C; Protein A/G Sepharose beads; blot with anti-binase antibodies; only the binder purified.

B1: binase, ribonuclease from Bacillus pumilus (enzyme, UniProt P00649 54-162, looked up)
chain: AVINTFDGVADYLIRYKRLPDNYITKSQASALGWVASKGNLAEVAPGKSIGGDVFSNREGRLPSASGRTWREADINYVSGFRNADRLVYSSDWLIYKTTDHYATFTRIR
notes: binase, ribonuclease of Bacillus pumilus, 12.3 kDa, pI 9.5; also called bacterial ribonuclease binase; cytotoxic ribonuclease from Bacillus pumilus; source: purified as described earlier [21, 22]
As to B1, the binding result is listed as “binds”.
